Measurements taken from patent publication US10500232B2, “Small molecule cellular reprogramming to generate neuronal cells” (The J. David Gladstone Institutes, a testamentary trust …, priority 2013, dated 2019).
At least one structure is not confirmed: it was looked up by name or label, or the drawing left a doubt.

Test system: Tau-EGFP mouse embryonic fibroblasts transduced with Ascl1/Myt1l
Test: High-throughput compound screening for Tau-EGFP expression and neuronal morphology
Format: cell-based
Details: individual compound plus doxycycline 7 days, analysed day 14; hits confirmed dose-dependently in larger well format
Description: Infected Tau-EGFP MEFs in 150-mm dishes were dissociated by trypsinization and plated to 384-well plates with 4×10^3 cells per well in 50 μl of N2B27 medium plus 2.0 μg ml^−1 doxycycline by using Multi-drop (Thermo Fisher). Fifty nanoliters of compounds from a collection of known drugs (˜3,000) were added to each well of infected cells by using BioMek (BD). After 3 days of compound treatment, […] N2B27 media were added to each well to keep the medium volume at 55-60 μl. The total period of compound treatment is 7 days. After that, medium was replaced with neuronal maturation medium for another 7 days. The cells were then fixed for immunostaining on Day 14. The high-throughput imaging was performed by using InCell 2000. Finally, the screening result was analyzed by InCell Workstation 2000.
To conduct the chemical screening, Tau-EGFP mouse embryonic fibroblasts were used that were transduced with an Ascl1/Myt1l coding region that was under control of tet operator. These cells were plated at 4,000 cells/well in 384-well plates containing chemically defined N2B27 media. […] Cells were fixed at day 14 then analyzed for Tau-EGFP expression and neuronal morphology by high content imaging (FIG. 4A and FIG. 3).

SMILES | induction of Tau-EGFP expression and neuronal morphology (screen hit)
CC/C=C\C/C=C\C/C=C\C/C=C\C/C=C\C/C=C\CCC(=O)O [DHA, docosahexaenoic acid] | induce Tau-EGFP expression and a neuronal morphology
CCOC(=O)C1=C(C)NC(C)=C(C(=O)OC)C1c1cccc([N+](=O)[O-])c1 (centres unmarked) [Nitrendipine, 5-O-ethyl 3-O-methyl-2,6-dimethyl-4-(3-nitrophenyl)-1,4-dihydropyridine-3,5-dicarboxylate] | induce Tau-EGFP expression and a neuronal morphology
